Results: publication doi:10.1101/2021.10.26.465926
Like-named read-outs stand apart in the source and are kept apart here. These are yes or no findings as the source states them, for the method shown. Binding seen in cells or lysates may run through a third protein. Some results given as binding are weak or reduced against the parent protein; the word gives no strength.

Protein sequences, listed by entry. Tags and fused reporters are not part of them. Residues count along the entry.
UniProt Q5SXA9: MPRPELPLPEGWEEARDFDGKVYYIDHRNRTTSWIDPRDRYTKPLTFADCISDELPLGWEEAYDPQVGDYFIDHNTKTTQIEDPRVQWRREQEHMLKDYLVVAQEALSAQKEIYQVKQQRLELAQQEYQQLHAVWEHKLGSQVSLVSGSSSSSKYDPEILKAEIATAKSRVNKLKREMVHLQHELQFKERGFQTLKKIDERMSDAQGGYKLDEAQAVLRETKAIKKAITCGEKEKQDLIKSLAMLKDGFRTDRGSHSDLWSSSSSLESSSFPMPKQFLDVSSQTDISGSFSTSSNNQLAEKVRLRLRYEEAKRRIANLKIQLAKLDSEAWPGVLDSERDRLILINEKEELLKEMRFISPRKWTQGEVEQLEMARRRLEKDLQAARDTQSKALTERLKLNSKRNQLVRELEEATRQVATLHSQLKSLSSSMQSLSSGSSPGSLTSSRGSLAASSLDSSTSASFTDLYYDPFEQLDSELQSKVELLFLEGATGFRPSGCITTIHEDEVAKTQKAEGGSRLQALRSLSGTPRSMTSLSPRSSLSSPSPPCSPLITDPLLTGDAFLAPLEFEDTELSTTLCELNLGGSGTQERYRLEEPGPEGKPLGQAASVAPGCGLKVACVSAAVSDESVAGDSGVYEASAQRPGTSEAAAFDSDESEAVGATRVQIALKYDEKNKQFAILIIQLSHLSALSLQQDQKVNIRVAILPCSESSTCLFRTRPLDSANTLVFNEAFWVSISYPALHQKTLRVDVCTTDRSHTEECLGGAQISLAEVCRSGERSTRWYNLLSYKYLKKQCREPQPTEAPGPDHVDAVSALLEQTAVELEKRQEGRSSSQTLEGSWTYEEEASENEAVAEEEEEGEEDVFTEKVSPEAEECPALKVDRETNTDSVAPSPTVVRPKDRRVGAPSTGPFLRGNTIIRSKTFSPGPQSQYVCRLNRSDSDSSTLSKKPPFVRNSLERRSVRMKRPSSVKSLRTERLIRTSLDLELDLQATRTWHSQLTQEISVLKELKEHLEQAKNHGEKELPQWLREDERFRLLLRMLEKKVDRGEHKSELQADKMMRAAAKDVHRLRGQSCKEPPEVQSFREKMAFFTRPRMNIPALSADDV
UniProt P23819, residues 25-883: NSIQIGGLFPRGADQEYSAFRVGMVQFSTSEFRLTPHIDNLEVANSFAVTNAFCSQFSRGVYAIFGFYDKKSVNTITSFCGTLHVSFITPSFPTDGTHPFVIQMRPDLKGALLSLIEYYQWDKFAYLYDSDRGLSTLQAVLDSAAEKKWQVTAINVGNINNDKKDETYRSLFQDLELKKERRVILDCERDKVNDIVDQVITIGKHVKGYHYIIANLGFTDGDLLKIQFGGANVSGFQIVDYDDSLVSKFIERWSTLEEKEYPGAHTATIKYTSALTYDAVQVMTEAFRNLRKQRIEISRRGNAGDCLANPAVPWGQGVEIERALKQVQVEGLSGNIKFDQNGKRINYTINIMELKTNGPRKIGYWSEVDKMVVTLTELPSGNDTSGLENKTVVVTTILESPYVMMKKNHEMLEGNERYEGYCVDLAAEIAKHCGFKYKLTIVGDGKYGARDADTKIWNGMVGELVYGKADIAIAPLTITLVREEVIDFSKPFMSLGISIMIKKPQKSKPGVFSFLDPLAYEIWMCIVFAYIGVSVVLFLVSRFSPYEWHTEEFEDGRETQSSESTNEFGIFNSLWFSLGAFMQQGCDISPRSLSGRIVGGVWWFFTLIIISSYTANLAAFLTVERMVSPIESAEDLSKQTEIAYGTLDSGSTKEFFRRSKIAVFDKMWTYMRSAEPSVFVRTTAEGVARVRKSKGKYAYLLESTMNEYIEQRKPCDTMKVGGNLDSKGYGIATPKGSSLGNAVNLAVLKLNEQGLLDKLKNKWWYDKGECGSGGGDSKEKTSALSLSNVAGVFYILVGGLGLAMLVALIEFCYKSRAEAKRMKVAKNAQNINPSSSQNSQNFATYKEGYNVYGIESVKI
UniProt P19491, residues 22-883: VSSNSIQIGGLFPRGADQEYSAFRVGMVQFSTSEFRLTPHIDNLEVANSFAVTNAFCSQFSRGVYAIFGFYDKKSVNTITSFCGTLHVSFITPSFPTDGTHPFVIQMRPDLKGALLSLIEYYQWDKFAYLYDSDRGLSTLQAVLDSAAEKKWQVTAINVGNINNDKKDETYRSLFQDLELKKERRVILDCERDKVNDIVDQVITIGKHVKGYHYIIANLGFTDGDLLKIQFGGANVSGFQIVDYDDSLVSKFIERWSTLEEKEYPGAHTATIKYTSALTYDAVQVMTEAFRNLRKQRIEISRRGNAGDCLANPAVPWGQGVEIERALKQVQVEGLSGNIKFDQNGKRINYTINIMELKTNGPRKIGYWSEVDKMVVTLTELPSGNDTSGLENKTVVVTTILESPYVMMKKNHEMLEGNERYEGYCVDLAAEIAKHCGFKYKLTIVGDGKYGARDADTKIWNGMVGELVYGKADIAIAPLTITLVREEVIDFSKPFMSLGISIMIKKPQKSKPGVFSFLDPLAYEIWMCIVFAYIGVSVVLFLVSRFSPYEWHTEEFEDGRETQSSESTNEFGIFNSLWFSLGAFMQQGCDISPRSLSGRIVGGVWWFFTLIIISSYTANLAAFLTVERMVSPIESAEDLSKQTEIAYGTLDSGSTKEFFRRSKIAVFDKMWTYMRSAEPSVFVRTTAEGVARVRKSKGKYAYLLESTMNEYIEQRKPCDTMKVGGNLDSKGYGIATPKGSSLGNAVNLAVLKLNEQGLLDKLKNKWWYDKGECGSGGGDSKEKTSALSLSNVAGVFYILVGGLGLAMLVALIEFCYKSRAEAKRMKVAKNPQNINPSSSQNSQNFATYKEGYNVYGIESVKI

What was measured:
Test in all cases: co-IP
[1] = target: KIBRA, endogenous in mouse forebrain (mouse (endogenous in mouse forebrain)) (UniProt Q5SXA9)
[2] = target: AMPAR GluA2 subunit, endogenous in mouse forebrain (mouse (endogenous in mouse forebrain)) (UniProt P23819)
[3] = target: AMPAR GluA2 subunit (cDNA expressed in HEK293T cells) (UniProt P19491)
[4] = target: AMPAR GluA2 subunit (cDNA expressed in HEK293T cells) (UniProt P19491); remark: listed apart in the source
[5] = target: KIBRA (cDNA expressed in HEK293T cells) (UniProt Q5SXA9)

Substance | binding [1] | binding [2] | binding [3] | binding [4] | binding [5]
PKCγ, endogenous in mouse forebrain (from UniProt P63318 1-697) (enzyme) | binds | binds | – | – | –
KIBRA (cDNA expressed in HEK293T cells) (from UniProt Q5SXA9 1-1104) | – | – | binds | – | –
PKCγ (cDNA expressed in HEK293T cells) (from UniProt P63318 1-697) (enzyme) | – | – | binds | binds | binds
